Laboratory results: PubChem BioAssay AID1259424 (University of Nebraska Medical Center, 2018)
The deposit covers about 14,000 reagents; shown is an unselected part. 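Higher correlation or smaller distance means closer resemblance to KSR1 loss; control wells, including KSR1 knockdowns, recur on many plates.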 The record does not give: the time to read-out.

Purpose: 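Rank knockdowns across the genome by resemblance to the KSR1 depletion profile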 (primary screen)
Cells: human HCT116 colon cancer cells
Reagent: siRNA pool against human genes, 50 nM
Read-out: 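Six signature mRNAs by branched-DNA multiplex assay, scaled to two housekeeping genes and non-targeting median, log2; matched to mean KSR1 knockdown profile by Pearson correlation and euclidean distance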
Scale: mean correlation with KSR1 profile and KSR1 correlation: higher = expression change more like KSR1 knockdown; mean distance from KSR1 profile: higher = expression change less like KSR1 knockdown

no.	Target gene	mean correlation with KSR1 profile	mean distance from KSR1 profile	KSR1 correlation, replicate 1	KSR1 correlation, replicate 2	KSR1 correlation, replicate 3
1	SLC71A2	0.509	2.83	0.426	0.545	0.363
2	ACKR3 (atypical chemokine receptor 3)	0.301	3.14	0.353	0.0526	0.358
3	ADAM30 (ADAM metallopeptidase domain 30)	-0.25	2.04	0.0473	-0.472	-0.379
4	CCN5 (cellular communication network factor 5)	-0.188	2.7	-0.0272	-0.122	-0.0806
5	APOBEC3C (apolipoprotein B mRNA editing enzyme catalytic subunit 3C)	0.541	2.09	0.506	0.63	0.349
6	PGLS (6-phosphogluconolactonase)	0.363	1.19	0.578	0.308	-0.0645
7	ATP8A2 (ATPase phospholipid transporting 8A2)	-0.0146	1.72	0.022	0.0157	-0.0841
8	MTM1 (myotubularin 1)	-0.174	2.26	-0.165	-0.352	-0.00982
9	BSN (bassoon presynaptic cytomatrix protein)	-0.418	1.93	-0.0773	-0.482	-0.537
10	DTYMK (deoxythymidylate kinase)	0.262	2.25	0.298	0.344	-0.083
11	ABCG5 (ATP binding cassette subfamily G member 5)	0.485	3.23	0.755	0.176	0.389
12	RPL26 (ribosomal protein L26)	-0.00918	3.2	-0.116	-0.136	0.17
13	IKZF3 (IKAROS family zinc finger 3)	-0.0312	2.74	0.149	0.0766	-0.0447
14	KLHL42 (kelch like family member 42)	-0.334	2.75	-0.283	-0.561	-0.339
15	ADGRF4 (adhesion G protein-coupled receptor F4)	0.457	1.5	0.274	0.474	0.551
16	CWF19L1 (CWF19 like cell cycle control factor 1)	-0.114	3.76	-0.101	-0.0915	-0.069
17	GRM1 (glutamate metabotropic receptor 1)	0.678	1.19	0.561	0.616	0.757
18	CHRFAM7A (CHRNA7 (exons 5-10) and FAM7A (exons A-E) fusion)	-0.473	1.8	-0.548	-0.427	-0.547
19	G2E3 (G2/M-phase specific E3 ubiquitin protein ligase)	-0.556	5.92	-0.412	-0.38	-0.254
20	IRAG1 (inositol 1,4,5-triphosphate receptor associated 1)	-0.497	3.31	-0.775	-0.614	-0.0548
21	HAGH (hydroxyacylglutathione hydrolase)	-0.541	2.49	-0.35	-0.754	-0.631
22	NUDT21 (nudix hydrolase 21)	-0.659	3.28	-0.627	-0.642	-0.354
23	TMEM50A (transmembrane protein 50A)	-0.342	4.4	-0.00234	-0.585	-0.28
24	CNOT7 (CCR4-NOT transcription complex subunit 7)	-0.185	1.39	-0.0705	0.411	-0.59
25	SSTR3 (somatostatin receptor 3)	0.679	1.29	0.629	0.627	0.81
26	ENGASE (endo-beta-N-acetylglucosaminidase)	0.0609	2.68	-0.0565	0.103	0.231
27	RBP3 (retinol binding protein 3)	0.106	2.79	0.0331	0.135	0.0784
28	TNFSF15 (TNF superfamily member 15)	0.719	2.57	0.804	0.677	0.634
29	TAPBPL (TAP binding protein like)	-0.488	2.35	-0.65	-0.483	-0.5
30	MTCH1	0.889	1.36	0.902	0.837	0.78
31	SMOC2 (SPARC related modular calcium binding 2)	-0.157	1.82	-0.385	-0.0555	-0.12
32	SWAP70 (switching B cell complex subunit SWAP70)	-0.642	1.97	-0.336	-0.633	-0.596
33	ANO1 (anoctamin 1)	-0.186	0.964	-0.4	-0.312	-0.111
34	LSP1 (lymphocyte specific protein 1)	0.439	2.41	0.519	0.455	0.341
35	AMBRA1 (autophagy and beclin 1 regulator 1)	-0.364	5.2	0.126	-0.308	-0.193
36	USP36 (ubiquitin specific peptidase 36)	0.0724	1.66	0.175	-0.171	-0.124
37	DEAF1 (DEAF1 transcription factor)	-0.609	2.8	-0.519	-0.576	-0.67
38	RIC8A (RIC8 guanine nucleotide exchange factor A)	0.357	2.17	0.329	0.399	0.377
39	COG2 (component of oligomeric golgi complex 2)	0.376	2.01	0.457	0.258	0.407
40	ALPK3 (alpha kinase 3)	0.299	1.57	0.398	0.661	-0.155
41	UCP2 (uncoupling protein 2)	-0.167	1.55	-0.747	0	0.765
42	G3BP1 (G3BP stress granule assembly factor 1)	0.315	1.19	0.0742	0.342	0.332
43	NADK (NAD kinase)	0.0891	2.09	0.191	-0.101	-0.222
44	KCNN2 (potassium calcium-activated channel subfamily N member 2)	-0.0897	1.37	-0.399	0.485	0.0536
45	TCP11 (t-complex 11)	0.119	2.2	0.00331	0.254	0.062
46	UBR2 (ubiquitin protein ligase E3 component n-recognin 2)	0.142	0.958	-0.664	0.441	0.279
47	IFNA7 (interferon alpha 7)	0.0138	1.35	0.0509	-0.21	0.143
48	S100PBP (S100P binding protein)	-0.00675	1.21	-0.411	-0.591	0.309
49	GNS (glucosamine (N-acetyl)-6-sulfatase)	0.208	2.46	0.396	-0.000359	0.132
50	HEXB (hexosaminidase subunit beta)	0.571	1.08	0.636	0.449	0.633
51	H4C14 (H4 clustered histone 14)	-0.315	2.66	-0.355	-0.554	-0.0656
52	RPL8 (ribosomal protein L8)	0.473	4.46	0.409	0.565	0.379
53	USP11 (ubiquitin specific peptidase 11)	-0.507	2.15	-0.357	-0.651	-0.509
54	SPRTN (SprT-like N-terminal domain)	0.0059	1.85	-0.582	-0.0352	0.526
55	APOC3 (apolipoprotein C3)	0.477	1.56	0.438	0.299	0.485
56	KLHL12 (kelch like family member 12)	0.0503	1.23	-0.183	0.032	0.28
57	BAP1 (BRCA1 associated deubiquitinase 1)	-0.8	2.34	-0.735	-0.88	-0.699
58	PRKCE (protein kinase C epsilon)	0.484	1.39	0.659	0.537	-0.124
59	HOXB2 (homeobox B2)	0.127	2.83	-0.0387	0.447	0.165
60	SERPINA3 (serpin family A member 3)	-0.222	2.72	-0.27	-0.188	-0.258
61	DDX20 (DEAD-box helicase 20)	0.234	1.55	0.228	0.253	0.0299
62	ACBD5 (acyl-CoA binding domain containing 5)	0.0447	1.26	0.208	0.672	-0.158
63	S100A6 (S100 calcium binding protein A6)	-0.184	2.18	-0.126	-0.275	-0.182

An excerpt from above, limited to “KSR1 correlation, replicate 1”:
NADK (NAD kinase) = 0.191
KCNN2 (potassium calcium-activated channel subfamily N member 2) = -0.399
TCP11 (t-complex 11) = 0.00331
UBR2 (ubiquitin protein ligase E3 component n-recognin 2) = -0.664
